For 32 targets, log2 fold change results are on record in the supplement of paper PMC10849652.

Amino acid sequences for entries named in this document (tags omitted). A change or cut given only in a name is not applied to a line headed by its entry.
UniProt Q02809: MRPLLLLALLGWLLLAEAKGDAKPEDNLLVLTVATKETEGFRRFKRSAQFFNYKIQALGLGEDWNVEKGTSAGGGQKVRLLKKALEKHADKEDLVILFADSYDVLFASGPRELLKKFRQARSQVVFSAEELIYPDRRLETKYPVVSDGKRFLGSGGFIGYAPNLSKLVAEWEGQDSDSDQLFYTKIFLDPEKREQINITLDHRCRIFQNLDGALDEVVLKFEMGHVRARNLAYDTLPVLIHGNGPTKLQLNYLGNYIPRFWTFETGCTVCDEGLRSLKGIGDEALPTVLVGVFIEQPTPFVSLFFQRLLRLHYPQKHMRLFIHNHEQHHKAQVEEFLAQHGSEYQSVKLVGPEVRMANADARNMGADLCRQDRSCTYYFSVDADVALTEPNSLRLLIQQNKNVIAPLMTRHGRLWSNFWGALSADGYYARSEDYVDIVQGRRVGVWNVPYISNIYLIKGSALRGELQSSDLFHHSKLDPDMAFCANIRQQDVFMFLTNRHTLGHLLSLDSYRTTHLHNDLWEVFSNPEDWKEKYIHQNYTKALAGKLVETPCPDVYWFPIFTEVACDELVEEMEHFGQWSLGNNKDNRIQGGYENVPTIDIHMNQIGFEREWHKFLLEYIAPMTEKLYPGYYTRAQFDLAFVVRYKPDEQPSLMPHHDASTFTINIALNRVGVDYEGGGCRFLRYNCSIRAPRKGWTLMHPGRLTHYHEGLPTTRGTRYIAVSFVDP
UniProt P53350, whole entry, looked up: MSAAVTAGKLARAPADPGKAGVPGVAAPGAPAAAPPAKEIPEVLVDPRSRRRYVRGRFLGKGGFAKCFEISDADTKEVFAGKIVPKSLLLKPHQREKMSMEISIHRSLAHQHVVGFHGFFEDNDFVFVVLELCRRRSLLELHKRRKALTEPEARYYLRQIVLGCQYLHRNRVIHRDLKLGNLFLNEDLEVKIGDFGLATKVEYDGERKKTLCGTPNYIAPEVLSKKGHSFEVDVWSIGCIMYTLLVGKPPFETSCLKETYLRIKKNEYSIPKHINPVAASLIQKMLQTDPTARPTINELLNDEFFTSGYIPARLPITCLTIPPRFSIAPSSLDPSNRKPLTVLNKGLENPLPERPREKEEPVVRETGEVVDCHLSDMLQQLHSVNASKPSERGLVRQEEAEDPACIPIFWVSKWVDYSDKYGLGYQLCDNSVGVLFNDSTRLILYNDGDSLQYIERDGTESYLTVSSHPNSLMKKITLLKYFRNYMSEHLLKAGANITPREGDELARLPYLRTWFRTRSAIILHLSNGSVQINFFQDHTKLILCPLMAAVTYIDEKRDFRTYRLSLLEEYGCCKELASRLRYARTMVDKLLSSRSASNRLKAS
UniProt O43447: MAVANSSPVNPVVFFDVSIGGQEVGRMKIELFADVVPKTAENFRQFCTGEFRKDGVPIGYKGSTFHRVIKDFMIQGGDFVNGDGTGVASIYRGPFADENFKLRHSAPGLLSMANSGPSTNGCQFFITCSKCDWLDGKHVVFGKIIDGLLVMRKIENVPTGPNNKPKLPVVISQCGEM
UniProt Q08752, whole entry, looked up: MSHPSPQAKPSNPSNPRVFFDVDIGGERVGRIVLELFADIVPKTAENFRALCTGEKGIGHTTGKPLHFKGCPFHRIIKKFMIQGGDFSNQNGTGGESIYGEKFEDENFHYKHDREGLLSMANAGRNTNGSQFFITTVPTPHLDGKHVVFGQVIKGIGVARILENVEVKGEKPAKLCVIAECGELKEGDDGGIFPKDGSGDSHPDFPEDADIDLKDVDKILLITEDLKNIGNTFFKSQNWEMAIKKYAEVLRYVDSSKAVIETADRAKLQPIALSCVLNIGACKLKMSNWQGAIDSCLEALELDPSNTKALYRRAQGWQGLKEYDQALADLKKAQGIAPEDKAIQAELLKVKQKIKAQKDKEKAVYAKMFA
UniProt Q96AD5: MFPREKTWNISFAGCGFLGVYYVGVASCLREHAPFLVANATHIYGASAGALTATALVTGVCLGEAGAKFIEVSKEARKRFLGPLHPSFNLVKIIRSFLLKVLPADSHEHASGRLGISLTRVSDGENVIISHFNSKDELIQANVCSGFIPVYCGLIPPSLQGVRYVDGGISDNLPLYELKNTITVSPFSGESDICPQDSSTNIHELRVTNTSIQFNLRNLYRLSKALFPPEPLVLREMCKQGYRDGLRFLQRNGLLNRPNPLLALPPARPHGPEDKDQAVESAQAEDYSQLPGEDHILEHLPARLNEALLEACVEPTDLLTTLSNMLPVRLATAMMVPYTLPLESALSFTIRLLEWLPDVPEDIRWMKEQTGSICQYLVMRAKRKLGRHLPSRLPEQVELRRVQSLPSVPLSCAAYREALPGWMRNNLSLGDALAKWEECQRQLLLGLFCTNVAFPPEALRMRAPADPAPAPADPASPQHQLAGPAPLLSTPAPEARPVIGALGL
UniProt O75334: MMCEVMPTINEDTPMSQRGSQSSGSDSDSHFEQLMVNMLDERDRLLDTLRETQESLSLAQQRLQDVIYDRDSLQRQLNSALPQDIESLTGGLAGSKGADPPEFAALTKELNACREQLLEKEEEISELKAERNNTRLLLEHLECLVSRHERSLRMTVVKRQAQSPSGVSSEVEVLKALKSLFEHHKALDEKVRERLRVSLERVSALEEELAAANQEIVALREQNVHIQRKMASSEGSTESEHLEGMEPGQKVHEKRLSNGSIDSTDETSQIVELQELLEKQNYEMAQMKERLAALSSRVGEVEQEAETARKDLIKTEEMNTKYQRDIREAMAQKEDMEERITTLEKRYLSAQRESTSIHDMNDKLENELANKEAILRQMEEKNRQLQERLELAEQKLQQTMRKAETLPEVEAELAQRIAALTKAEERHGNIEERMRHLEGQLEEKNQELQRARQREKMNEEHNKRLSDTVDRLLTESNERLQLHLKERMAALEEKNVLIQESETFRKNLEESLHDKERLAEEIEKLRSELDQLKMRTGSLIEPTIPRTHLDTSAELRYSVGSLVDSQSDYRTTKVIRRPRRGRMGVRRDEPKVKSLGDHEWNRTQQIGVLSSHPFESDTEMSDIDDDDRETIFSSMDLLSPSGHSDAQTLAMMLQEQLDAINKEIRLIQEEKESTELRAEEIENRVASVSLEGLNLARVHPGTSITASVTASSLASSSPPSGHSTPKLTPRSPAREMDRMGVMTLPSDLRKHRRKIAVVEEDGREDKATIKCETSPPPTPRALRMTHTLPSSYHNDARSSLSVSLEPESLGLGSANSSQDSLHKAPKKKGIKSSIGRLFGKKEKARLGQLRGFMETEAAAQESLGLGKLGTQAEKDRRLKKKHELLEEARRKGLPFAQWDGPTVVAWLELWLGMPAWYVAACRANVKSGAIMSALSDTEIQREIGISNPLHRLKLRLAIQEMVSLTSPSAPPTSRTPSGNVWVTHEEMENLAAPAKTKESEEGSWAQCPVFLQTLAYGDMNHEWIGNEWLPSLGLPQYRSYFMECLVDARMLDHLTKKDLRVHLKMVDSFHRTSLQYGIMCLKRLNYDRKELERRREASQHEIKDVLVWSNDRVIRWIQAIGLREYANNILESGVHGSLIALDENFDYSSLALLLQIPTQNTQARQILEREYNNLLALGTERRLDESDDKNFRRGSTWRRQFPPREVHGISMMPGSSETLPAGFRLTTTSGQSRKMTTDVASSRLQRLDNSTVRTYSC
UniProt P35813: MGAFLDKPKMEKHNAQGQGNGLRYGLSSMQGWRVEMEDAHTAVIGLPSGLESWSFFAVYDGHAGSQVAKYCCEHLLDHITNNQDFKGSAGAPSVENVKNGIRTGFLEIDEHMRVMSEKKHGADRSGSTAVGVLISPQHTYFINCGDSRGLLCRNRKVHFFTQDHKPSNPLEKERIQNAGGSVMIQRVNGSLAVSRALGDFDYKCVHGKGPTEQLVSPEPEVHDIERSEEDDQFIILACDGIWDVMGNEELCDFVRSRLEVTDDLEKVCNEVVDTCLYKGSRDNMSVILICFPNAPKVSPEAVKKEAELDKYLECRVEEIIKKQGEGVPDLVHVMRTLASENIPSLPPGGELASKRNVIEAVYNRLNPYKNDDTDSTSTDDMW
UniProt Q9Y535: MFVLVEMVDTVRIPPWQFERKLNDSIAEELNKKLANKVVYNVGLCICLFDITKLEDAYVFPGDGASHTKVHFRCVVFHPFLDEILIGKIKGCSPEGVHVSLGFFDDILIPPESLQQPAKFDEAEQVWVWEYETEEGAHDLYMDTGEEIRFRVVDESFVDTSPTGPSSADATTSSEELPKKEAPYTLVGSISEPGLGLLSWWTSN
UniProt O15305: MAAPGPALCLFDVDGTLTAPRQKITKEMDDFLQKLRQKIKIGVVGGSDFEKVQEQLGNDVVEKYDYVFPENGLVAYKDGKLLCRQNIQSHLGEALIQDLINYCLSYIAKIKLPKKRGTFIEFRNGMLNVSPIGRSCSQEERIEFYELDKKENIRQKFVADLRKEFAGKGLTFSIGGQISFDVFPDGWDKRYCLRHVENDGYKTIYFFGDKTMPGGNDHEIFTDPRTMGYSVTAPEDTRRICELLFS
UniProt P30405: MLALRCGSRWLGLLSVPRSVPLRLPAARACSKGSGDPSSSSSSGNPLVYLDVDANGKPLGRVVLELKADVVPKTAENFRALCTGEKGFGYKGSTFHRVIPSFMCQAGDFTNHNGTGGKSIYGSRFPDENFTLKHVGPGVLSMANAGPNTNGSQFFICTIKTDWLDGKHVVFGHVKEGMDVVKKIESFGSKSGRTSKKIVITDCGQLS
UniProt O94903: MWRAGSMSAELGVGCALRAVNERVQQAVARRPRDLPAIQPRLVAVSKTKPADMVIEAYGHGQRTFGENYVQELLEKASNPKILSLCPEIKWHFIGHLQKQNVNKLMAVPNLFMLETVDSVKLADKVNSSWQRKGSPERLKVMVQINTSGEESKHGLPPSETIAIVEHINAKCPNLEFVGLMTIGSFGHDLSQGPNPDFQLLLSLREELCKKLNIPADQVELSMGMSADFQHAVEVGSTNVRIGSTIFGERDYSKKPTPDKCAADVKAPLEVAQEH
UniProt Q9BUI4: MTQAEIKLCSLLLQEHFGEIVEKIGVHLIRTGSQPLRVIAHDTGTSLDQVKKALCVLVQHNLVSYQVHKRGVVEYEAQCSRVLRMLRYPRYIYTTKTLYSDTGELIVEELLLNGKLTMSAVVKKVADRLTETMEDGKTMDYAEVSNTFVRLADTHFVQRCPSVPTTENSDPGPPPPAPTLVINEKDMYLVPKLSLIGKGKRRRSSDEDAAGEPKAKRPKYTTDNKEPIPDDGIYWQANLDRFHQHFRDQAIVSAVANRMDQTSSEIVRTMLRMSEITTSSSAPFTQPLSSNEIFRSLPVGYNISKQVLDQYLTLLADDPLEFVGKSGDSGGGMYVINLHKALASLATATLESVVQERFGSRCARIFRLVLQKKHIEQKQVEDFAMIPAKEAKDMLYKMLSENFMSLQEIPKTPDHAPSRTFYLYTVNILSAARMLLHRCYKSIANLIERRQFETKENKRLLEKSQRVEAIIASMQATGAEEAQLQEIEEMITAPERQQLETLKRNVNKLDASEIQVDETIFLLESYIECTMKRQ
UniProt A5A3E0, whole entry, looked up: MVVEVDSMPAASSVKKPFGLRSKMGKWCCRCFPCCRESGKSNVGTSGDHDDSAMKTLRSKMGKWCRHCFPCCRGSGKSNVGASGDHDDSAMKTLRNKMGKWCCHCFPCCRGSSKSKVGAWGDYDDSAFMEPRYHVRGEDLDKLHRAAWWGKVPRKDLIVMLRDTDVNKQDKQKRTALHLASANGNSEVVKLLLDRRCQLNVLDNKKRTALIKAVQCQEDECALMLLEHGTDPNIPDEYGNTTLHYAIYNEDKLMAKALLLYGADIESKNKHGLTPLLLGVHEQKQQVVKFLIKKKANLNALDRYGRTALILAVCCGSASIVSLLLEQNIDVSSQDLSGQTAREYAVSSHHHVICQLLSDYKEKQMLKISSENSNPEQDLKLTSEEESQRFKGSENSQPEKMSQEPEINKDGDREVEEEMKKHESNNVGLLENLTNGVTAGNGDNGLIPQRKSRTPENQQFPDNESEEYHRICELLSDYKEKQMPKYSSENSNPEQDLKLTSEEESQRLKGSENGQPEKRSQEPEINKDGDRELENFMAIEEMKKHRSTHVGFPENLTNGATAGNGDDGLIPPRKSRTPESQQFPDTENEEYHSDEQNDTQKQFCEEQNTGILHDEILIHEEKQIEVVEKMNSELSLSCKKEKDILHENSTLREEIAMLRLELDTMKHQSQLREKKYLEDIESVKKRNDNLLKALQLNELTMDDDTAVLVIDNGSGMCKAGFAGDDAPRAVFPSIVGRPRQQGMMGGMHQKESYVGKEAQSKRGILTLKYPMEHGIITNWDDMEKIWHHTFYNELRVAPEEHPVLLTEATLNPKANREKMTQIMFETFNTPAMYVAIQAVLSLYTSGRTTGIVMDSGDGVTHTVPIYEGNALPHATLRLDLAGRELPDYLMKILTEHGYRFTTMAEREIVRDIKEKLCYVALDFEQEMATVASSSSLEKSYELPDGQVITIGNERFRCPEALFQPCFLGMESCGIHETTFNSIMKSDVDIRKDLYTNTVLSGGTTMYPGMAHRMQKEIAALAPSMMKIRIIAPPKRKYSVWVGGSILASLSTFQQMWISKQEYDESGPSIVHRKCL

This is one part of the list.

Compound in one experiment: CCCS(=O)(=O)Nc1ccc(F)c(C(=O)c2c[nH]c3ncc(-c4ccc(Cl)cc4)cc23)c1F [vemurafenib]
Briefly: log2 fold change, soluble protein after heating vs DMSO (PISA); higher = thermal stabilisation; K562 cells, 10 uM, 30 min; active = over 0.2 and 3.5 SD of the protein, either way, in both replicates (recomputed). Put shortly: (§1)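 For each measurement, 10 μM compound was applied for 30 min to K562 cells at 2×10^6 cells/mL. Aliquots were heated for 3 min across 48°C-58°C, pooled, and extracted in PBS with 0.5% NP-40 at 4°C; the supernatant after 21,000xg for 90 min was soluble protein. This was quantified by TMTpro 16plex LC-MS/MS with channel sums equalised, and thermal stability was reported relative to control samples from duplicates, on a log2 fold-change scale.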
Take POLR2A (UniProt P24928): the log2 fold change was inactive: 0.002.
Turning to POLR2K (UniProt P53803), the log2 fold change was inactive: -0.001.
For the target POLR2F (UniProt P61218), the log2 fold change is inactive: -0.065.
As for PLSCR1 (UniProt O15162), the log2 fold change was inactive: -0.05.
For PNO1 (UniProt Q9NRX1), the log2 fold change was inactive: 0.052.
The same measure, in the same setting: with POLR1A (UniProt O95602) the figure was inactive: 0.052.
As for PLOD1 isoform 2 (UniProt Q02809), the log2 fold change was inactive: -0.034.
For the target PPCS (UniProt Q9HAB8), the log2 fold change was inactive: 0.043.
Same read-out and setting: with POLR3G (UniProt O15318) the figure was inactive: -0.016; with POFUT1 (UniProt Q9H488), inactive: -0.014.
PLXNA1 (UniProt Q9UIW2): the log2 fold change is inactive: -0.014.
Same read-out and setting: to POLR2I (UniProt P36954) belongs inactive: -0.086; to PLEKHF2 (UniProt Q9H8W4), inactive: -0.073.
The same measure, in the same setting: with PLK1 (UniProt P53350) the figure was inactive: 0.018; with PODXL2 (UniProt Q9NZ53), inactive: -0.064; with PLS3 (UniProt P13797), inactive: -0.011.
Same read-out and setting: with POTEI (UniProt P0CG38) the figure was inactive: 0.08; with PPIE (UniProt Q9UNP9), inactive: -0.017; with PPIH (UniProt O43447), inactive: -0.016.
Consider POSTN (UniProt Q15063), for which the log2 fold change is inactive: 0.163.
Same read-out and setting: with PPID (UniProt Q08752) the figure was inactive: 0.097; with PNPLA2 (UniProt Q96AD5), inactive: -0.017; with PPIL1 (UniProt Q9Y3C6), inactive: -0.045.
In the case of PPFIA2 (UniProt O75334), the log2 fold change was inactive: 0.009.
As to PPM1A isoform 3 (UniProt P35813), the log2 fold change was inactive: 0.007.
For the target POLR3H (UniProt Q9Y535), the log2 fold change is inactive: 0.032.
Consider PMM2 (UniProt O15305), for which the log2 fold change was inactive: -0.04.
On the same count and under the same terms, to PPIF (UniProt P30405) belongs inactive: -0.028; to PLPBP (UniProt O94903), inactive: 0.038.
On to PMF1 (UniProt Q6P1K2), for which the log2 fold change was inactive: 0.072.
Same read-out and setting: to POLR3C (UniProt Q9BUI4) belongs inactive: 0.029; to POTEF (UniProt A5A3E0), inactive: -0.046.

Compound in the next experiment: CCCS(=O)(=O)Nc1ccc(F)c(C(=O)c2c[nH]c3ncc(Cl)cc23)c1F
Described as above. A digest of the protocol:
as §1
Turning to POLR2A (UniProt P24928), the log2 fold change was inactive: 0.071.
Take POLR2K (UniProt P53803): the log2 fold change was inactive: -0.024.
Still for that read-out and setting: with POLR2F (UniProt P61218) the figure was inactive: -0.029; with PLSCR1 (UniProt O15162), inactive: 0.088.
As for PNO1 (UniProt Q9NRX1), the log2 fold change is inactive: 0.044.
The same measure, in the same setting: to POLR1A (UniProt O95602) belongs inactive: 0.062; to PLOD1 isoform 2 (UniProt Q02809), inactive: -0.064; to PPCS (UniProt Q9HAB8), inactive: 0.011.
The same measure, in the same setting: to POLR3G (UniProt O15318) belongs inactive: -0.02; to POFUT1 (UniProt Q9H488), inactive: -0.026; to PLXNA1 (UniProt Q9UIW2), inactive: -0.015.
As for POLR2I (UniProt P36954), the log2 fold change is inactive: -0.081.
For the target PLEKHF2 (UniProt Q9H8W4), the log2 fold change is inactive: 0.043.
On the same count and under the same terms, to PLK1 (UniProt P53350) belongs inactive: 0.029; to PODXL2 (UniProt Q9NZ53), inactive: -0.038.
The same measure, in the same setting: with PLS3 (UniProt P13797) the figure was inactive: 0.032.
In the case of POTEI (UniProt P0CG38), the log2 fold change was inactive: 0.014.
Regarding PPIE (UniProt Q9UNP9), the log2 fold change was inactive: -0.029.
For PPIH (UniProt O43447), the log2 fold change was inactive: 0.044.
The same measure, in the same setting: to POSTN (UniProt Q15063) belongs inactive: 0.008; to PPID (UniProt Q08752), inactive: 0.105; to PNPLA2 (UniProt Q96AD5), inactive: 0.053.
Same read-out and setting: with PPIL1 (UniProt Q9Y3C6) the figure was inactive: 0.027; with PPFIA2 (UniProt O75334), inactive: 0.132.
As to PPM1A isoform 3 (UniProt P35813), the log2 fold change was inactive: -0.021.
Still for that read-out and setting: to POLR3H (UniProt Q9Y535) belongs inactive: -0.011.
In the case of PMM2 (UniProt O15305), the log2 fold change is inactive: -0.009.
The same measure, in the same setting: to PPIF (UniProt P30405) belongs inactive: -0.027; to PLPBP (UniProt O94903), inactive: 0.029.
For PMF1 (UniProt Q6P1K2), the log2 fold change is inactive: 0.198.
Consider POLR3C (UniProt Q9BUI4), for which the log2 fold change was inactive: 0.023.
In the case of POTEF (UniProt A5A3E0), the log2 fold change is inactive: 0.003.

Compound in the next experiment: CCCc1cc(C)[nH]c(=O)c1CNC(=O)c1cc(-c2ccnc(N3CCN(C)CC3)c2)cc2c1cnn2C(C)C
The experiment is described as above. Put shortly: as §1
As to POLR2A (UniProt P24928), the log2 fold change is inactive: -0.023.
Take POLR2K (UniProt P53803): the log2 fold change was inactive: 0.075.
As for POLR2F (UniProt P61218), the log2 fold change is inactive: 0.745.
For the target PLSCR1 (UniProt O15162), the log2 fold change is inactive: -0.101.
Still for that read-out and setting: to PNO1 (UniProt Q9NRX1) belongs inactive: 0.407; to POLR1A (UniProt O95602), inactive: 0.321.
On the same count and under the same terms, with PLOD1 isoform 2 (UniProt Q02809) the figure was inactive: 0.047; with PPCS (UniProt Q9HAB8), inactive: -0.028.
On the same count and under the same terms, with POLR3G (UniProt O15318) the figure was inactive: -0.015; with POFUT1 (UniProt Q9H488), inactive: 0.035; with PLXNA1 (UniProt Q9UIW2), inactive: -0.055.
Regarding POLR2I (UniProt P36954), the log2 fold change is inactive: -0.057.
As for PLEKHF2 (UniProt Q9H8W4), the log2 fold change is inactive: 0.056.
As to PLK1 (UniProt P53350), the log2 fold change is inactive: 0.042.
Same read-out and setting: to PODXL2 (UniProt Q9NZ53) belongs inactive: -0.126.
For the target PLS3 (UniProt P13797), the log2 fold change is inactive: -0.077.
As for POTEI (UniProt P0CG38), the log2 fold change is inactive: -0.072.
Still for that read-out and setting: to PPIE (UniProt Q9UNP9) belongs inactive: 0.016.
On the same count and under the same terms, to PPIH (UniProt O43447) belongs inactive: -0.032; to POSTN (UniProt Q15063), inactive: -0.273.
Consider PPID (UniProt Q08752), for which the log2 fold change is inactive: 0.104.
Still for that read-out and setting: to PNPLA2 (UniProt Q96AD5) belongs inactive: 0.026; to PPIL1 (UniProt Q9Y3C6), inactive: -0.016.
As for PPFIA2 (UniProt O75334), the log2 fold change is inactive: -0.011.
On the same count and under the same terms, with PPM1A isoform 3 (UniProt P35813) the figure was inactive: 0.023; with POLR3H (UniProt Q9Y535), inactive: 0.033.
Regarding PMM2 (UniProt O15305), the log2 fold change is inactive: -0.055.
The same measure, in the same setting: with PPIF (UniProt P30405) the figure was inactive: -0.04; with PLPBP (UniProt O94903), inactive: 0.011; with PMF1 (UniProt Q6P1K2), inactive: -0.094.
As for POLR3C (UniProt Q9BUI4), the log2 fold change was inactive: 0.002.
Take POTEF (UniProt A5A3E0): the log2 fold change is inactive: -0.025.
